Experimental data from patent publication US10500288B2, “Cytotoxic HEXIM1 peptides and uses thereof” (AGENCY FOR SCIENCE, TECHNOLOGY AND RESEARCH, priority 2015, dated 2019).
Part of at least one peptide drawing is inferred or uncertain, most often the ends. Peptide text beside a SMILES is read from it.

Protein sequences, listed by entry. Tags and fused reporters are not part of them.
UniProt P06748, whole entry: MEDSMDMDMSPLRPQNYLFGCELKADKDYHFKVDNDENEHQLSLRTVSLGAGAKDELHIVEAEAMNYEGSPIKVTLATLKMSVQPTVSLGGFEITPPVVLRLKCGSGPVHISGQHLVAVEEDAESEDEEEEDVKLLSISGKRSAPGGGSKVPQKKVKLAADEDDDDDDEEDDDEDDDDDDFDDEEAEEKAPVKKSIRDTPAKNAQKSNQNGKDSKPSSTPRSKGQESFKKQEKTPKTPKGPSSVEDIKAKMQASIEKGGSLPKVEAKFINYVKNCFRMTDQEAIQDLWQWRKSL

Tests used:
HCT116 (p53 WT) cells [1] = experiment: Cell viability (Cell-Titer Glo) in HCT116 (p53 WT); format: cell-based, human; settings: overnight, various concentrations
Protocol: (§1) Human cell lines including HeLa, HEK293, MCF7, MDA-MB-231, CHO-K1, OPM-2, and WI-38 were obtained from American Type Culture Collection. AML2 and AML3 cells were purchased from Deutsche Sammlung von Mikroorganismen und Zellkulturen. HCT116 p53+/+ and p53−/− cells were kindly given by Dr. Bert Vogelstein. Primary human foreskin fibroblasts (HFF) were obtained from Dr. Mark Stinski. […] MDA-MB-231 and OPM-2 cells were cultured in RPMI-1640 (Gibco) containing 10% FBS and 1% penicillin/streptomycin. All cells were routinely maintained in a 37° C. incubator with 5% CO2.
(§2) Cells were plated in clear-bottomed white walled 96-well plates (Corning) and incubated overnight. Cells were treated with indicated peptides in 1% FBS-containing media for overnight or indicated timings at 37° C. Cell viability was measured with CellTiter-Glo reagent (Promega) according to the manufacturer's instructions. For cytotoxicity assay, cells were plated in black walled 96-well plates (Corning) to allow them to adhere overnight. Upon treatment with a pan-caspase inhibitor, z-VAD-Fmk ([…]) (Sigma) and subsequent treatment with LTV-tagged peptides, cytotoxicity induced was determined by CellTox cytotoxicity assay (Promega) 30 minutes after addition of peptides according to the manufacturer's instructions. Luminescence was determined using an Infinite 200 multiplate reader (Tecan).

HCT116 (p53 KO) cells [2] = experiment: Cell viability (Cell-Titer Glo) in HCT116 (p53 KO); format: cell-based, human; settings: overnight, various concentrations
Protocol: as §1, §2

HCT116 (p53 WT) cells [3] = experiment: Time-lapse DIC live cell imaging, HCT116 (p53 WT); format: cell-based, human; settings: 30 μM, within minutes
Protocol: (§3) HCT116 (p53 WT) and HCT116 (p53 KO) cells were cultured on glass slides overnight, treated with vehicle control (0.5% dimethyl sulfoxide (DMSO)) or the indicated FGF peptides (30 μM). Time-lapse DIC imaging highlights dynamic morphological changes in treated HCT116 cells by spinning disk confocal microscopy. […] In contrast, FGF-BR peptide rapidly induces drastic changes to the cell morphology with rupturing of the plasma membrane accompanied with damages to the nuclear membrane and abnormalities to the nucleolus in both cell types. (B) cytotoxicity fluorescence plots of breast cancer cells MCF7 showing the effect of pan-caspase inhibitor z-VAD-Fmk on cells treated with LTV-tagged BR peptide. LTV is a breast cancer cell targeting peptide. MCF7 cells were incubated with or without z-VAD-Fmk (for 90 min) and then with indicated LTV-tagged peptides (30 μM) for thirty minutes at 37° C. Cells treated with LTV-X13 peptide (SEQ ID NO: 14) or vehicles, DMSO (0.5%), were used as negative controls. Treated cells were subjected to the cytotoxicity assay as described in Example 9—Materials and Methods. Data representative of at least three independent experiments performed in triplicate were shown with values expressed as mean±SD.
(§4) The mechanism of cell death induced by the HEXIM1 BR peptide was examined. […]

HCT116 (p53 KO) cells [4] = experiment: Time-lapse DIC live cell imaging, HCT116 (p53 KO); format: cell-based, human; settings: 30 μM, within minutes
Protocol: as §3, §4

HCT116 (p53 WT) cells [5] = experiment: Mitochondrial membrane potential (JC-1), HCT116 (p53 WT); format: cell-based, human; settings: 30 μM for three minutes
HCT116 (p53 KO) cells [6] = experiment: Mitochondrial membrane potential (JC-1), HCT116 (p53 KO); format: cell-based, human; settings: 30 μM for three minutes
NPM [7] = target: T1, NPM (Homo sapiens, UniProt P06748); experiment: Immunofluorescence of NPM sub-cellular localization, HCT116 (p53 WT); format: cell-based; settings: 30 μM
T1 construct: FGF-tagged BR peptide alters the sub-cellular localization and protein level of endogenous NPM; endogenous in cells; host or cells: HCT116 (p53 WT) and HCT116 (p53 KO)
Protocol: (§5) (A) representative immunofluorescence images showing the sub-cellular localization of α-NPM (bar represents 10 μm). HCT116 (p53 WT) and HCT116 (p53KO) cells were cultured on glass slides overnight, treated with FGF-X13 or FGF-BR (30 μM). Cells treated with FGF-X13 peptide or vehicle, DMSO (0.5%), was used as controls. Treated cells were immunostained with an anti-NPM antibody and analyzed by laser scanning confocal microscopy (Zeiss). Nuclei were visualized by staining with 4′,6-diamidino-2-phenylindole (DAPI).
(§6) For staining with anti-NPM, cultured cells were fixed in 10% neutral buffered formalin (Sigma) for 10 min, and then in methanol for 10 min, washed in PBS and incubated with blocking buffer (PBS containing 0.5% bovine serum albumin) for 1 hour prior to incubation with a mouse anti-NPM antibody (Invitrogen) in blocking buffer for overnight at 4° C. Cells were then incubated with Alexa Fluor 488-conjugated secondary antibody (Jackson Immuno Research Laboratories) for 1 hour, washed three times with PBS and counterstained with 4′,6-diamidino-2-phenylindole (DAPI)-containing mounting solution (Vectashield). Stained cells were examined with a LSM 510 confocal microscope using a 63× objective lens (Zeiss).

NPM [8] = target: T1, NPM; experiment: Immunofluorescence of NPM sub-cellular localization, HCT116 (p53 KO); format: cell-based; settings: 30 μM
Protocol: as §5, §6

NPM [9] = target: T1, NPM; experiment: Western blot of NPM protein level, HCT116 (p53 WT); format: cell-based; settings: 30 μM, compared to the FGF-X13 control
NPM [10] = target: T1, NPM; experiment: Western blot of NPM protein level, HCT116 (p53 KO); format: cell-based; settings: 30 μM, compared to the FGF-X13 control
p53 = p53 Ser15 phosphorylation and Lys382 acetylation levels (data not shown); format: cell-based, human; settings: HCT116 (p53 WT)
MCF7 cells [11] = experiment: Cell viability (Cell-Titer Glo) in MCF7 breast cancer cells; format: cell-based, human; settings: overnight, different concentrations
Protocol: as §1, §2

MDA-MB-231 cells = experiment: Cell viability (Cell-Titer Glo) in MDA-MB-231 breast cancer cells; format: cell-based, human; settings: overnight, different concentrations
Protocol: as §1, §2

CHO-K1 cells = experiment: Cell viability (Cell-Titer Glo) in CHO-K1 cells; format: cell-based, Chinese hamster; settings: overnight, various concentrations
OPM-2 cells = experiment: Cell viability (Cell-Titer Glo) in OPM-2 multiple myeloma cells; format: cell-based, human; settings: overnight, various concentrations
WI-38 cells = experiment: Cell viability (Cell-Titer Glo) in WI-38 lung fibroblasts; format: cell-based, human; settings: WI-38 normal lung fibroblasts; overnight, various concentrations
MCF7 cells [12] = experiment: CellTox cytotoxicity assay with or without z-VAD-Fmk; format: cell-based; settings: z-VAD-Fmk (100 μM) 90 min, then peptide 30 μM for thirty minutes
Protocol: as §3, with “LTV is a breast cancer cell targeting peptide. MCF7 cells were incubated with or without z-VAD-Fmk (for 90 min) and then with indicated LTV-tagged peptides (30 μM) for thirty minutes at 37° C. Cells treated with LTV-X13 peptide (SEQ ID NO: 14) or vehicles, DMSO (0.5%), were used as negative controls. Treated cells were subjected to the cytotoxicity assay as described in Example 9—Materials and Methods.” left out
as §2, with “Cells were treated with indicated peptides in 1% FBS-containing media for overnight or indicated timings at 37° C.” left out, “For cytotoxicity assay, cells were plated in black walled 96-well plates (Corning) to allow them to adhere overnight.” left out

Structure (SMILES) | cell death / cell viability (HCT116 (p53 WT) cells [1]) | cell death / cell viability (HCT116 (p53 KO) cells [2]) | morphological changes (HCT116 (p53 WT) cells [3]) | morphological changes (HCT116 (p53 KO) cells [4]) | mitochondrial membrane potential (depolarization) (HCT116 (p53 WT) cells [5]) | mitochondrial membrane potential (depolarization) (HCT116 (p53 KO) cells [6]) | sub-cellular localization of NPM (NPM [7]) | sub-cellular localization of NPM (NPM [8]) | NPM protein level (NPM [9]) | NPM protein level (NPM [10]) | expression levels of phosphorylation of p53 on Ser15 and acetylation of p53 on Lys382 (p53) | effect on cell viability (MCF7 cells [11]) | effect on cell viability (MDA-MB-231 cells) | non-specific cell killing (cell viability) (CHO-K1 cells) | non-specific cell killing (cell viability) (OPM-2 cells) | non-specific cell killing (cell viability) (WI-38 cells) | inhibition of induced cell death by pan-caspase inhibitor z-VAD-Fmk (MCF7 cells [12])
CC(C)C[C@H](NC(=O)[C@H](C)NC(=O)[C@H](CC(C)C)NC(=O)[C@H](CC(C)C)NC(=O)[C@@H](NC(=O)[C@H](C)NC(=O)[C@@H]1CCCN1C(=O)[C@H](CC(C)C)NC(=O)[C@H](CC(C)C)NC(=O)[C@H](C)NC(=O)[C@@H](NC(=O)[C@H](C)NC(=O)[C@H](C)N)C(C)C)C(C)C)C(=O)N[C@@H](CC(C)C)C(=O)N[C@@H](C)C(=O)N1CCC[C@H]1C(=O)N[C@@H](CCC(N)=O)C(=O)N[C@@H](CC(C)C)C(=O)NCC(=O)N[C@@H](CCCCN)C(=O)N[C@@H](CCCCN)C(=O)N[C@@H](CCCCN)C(=O)N[C@@H](Cc1c[nH]cn1)C(=O)N[C@@H](CCCNC(=N)N)C(=O)N[C@@H](CCCNC(=N)N)C(=O)N[C@@H](CCCNC(=N)N)C(=O)N1CCC[C@H]1C(=O)N[C@@H](CO)C(=O)N[C@@H](CCCCN)C(=O)N[C@@H](CCCCN)C(=O)N[C@@H](CCCCN)C(=O)N[C@@H](CCCNC(=N)N)C(=O)N[C@@H](Cc1c[nH]cn1)C(=O)N[C@@H](Cc1c[nH]c2ccccc12)C(=O)O [FGF-BR] (H-AAVALLPAVLLALLAPQLGKKKHRRRPSKKKRHW-OH) | induced cell death | induced cell death | rapidly induced drastic changes to the cell morphology with rupturing of the plasma membrane | rapidly induced drastic changes to the cell morphology with rupturing of the plasma membrane | rapid mitochondrial depolarization within three minutes | no mitochondrial depolarization was observed | mislocalization of NPM was detected | mislocalization of NPM was detected | a reduction in NPM protein level | a reduction in NPM protein level | remained unchanged |  |  |  |  |  | 
CC(C)C[C@H](NC(=O)[C@H](CCC(N)=O)NC(=O)CNC(=O)[C@H](CS)NC(=O)CNC(=O)[C@H](Cc1ccc(O)cc1)NC(=O)[C@H](Cc1c[nH]c2ccccc12)NC(=O)[C@@H]1CCCN1C(=O)[C@H](CO)NC(=O)[C@@H](NC(=O)[C@@H](NC(=O)[C@@H](N)CC(C)C)[C@@H](C)O)C(C)C)C(=O)NCC(=O)N[C@@H](CCCCN)C(=O)N[C@@H](CCCCN)C(=O)N[C@@H](CCCCN)C(=O)N[C@@H](Cc1c[nH]cn1)C(=O)N[C@@H](CCCNC(=N)N)C(=O)N[C@@H](CCCNC(=N)N)C(=O)N[C@@H](CCCNC(=N)N)C(=O)N1CCC[C@H]1C(=O)N[C@@H](CO)C(=O)N[C@@H](CCCCN)C(=O)N[C@@H](CCCCN)C(=O)N[C@@H](CCCCN)C(=O)N[C@@H](CCCNC(=N)N)C(=O)N[C@@H](Cc1c[nH]cn1)C(=O)N[C@@H](Cc1c[nH]c2ccccc12)C(=O)O [LTV-BR] (H-LTVSPWYGCGQLGKKKHRRRPSKKKRHW-OH) |  |  |  |  |  |  |  |  |  |  |  | anti-proliferation effects | anti-proliferation effects | little or no effects | little or no effects | does not show such non-specific cytotoxicity | could not be inhibited
CC(C)C[C@H](NC(=O)[C@H](CCCCN)NC(=O)CNC(=O)[C@H](CS)NC(=O)CNC(=O)[C@H](Cc1ccc(O)cc1)NC(=O)[C@H](Cc1c[nH]c2ccccc12)NC(=O)[C@@H]1CCCN1C(=O)[C@H](CO)NC(=O)[C@@H](NC(=O)[C@@H](NC(=O)[C@@H](N)CC(C)C)[C@@H](C)O)C(C)C)C(=O)N[C@@H](C)C(=O)N[C@@H](CCCCN)C(=O)N[C@@H](CC(C)C)C(=O)N[C@@H](C)C(=O)N[C@@H](CCCCN)C(=O)N[C@@H](CCCCN)C(=O)N[C@@H](CC(C)C)C(=O)N[C@@H](C)C(=O)N[C@@H](CCCCN)C(=O)N[C@@H](CC(C)C)C(=O)N[C@@H](C)C(=O)N[C@@H](CCCCN)C(=O)O [LTV-KLA, reference compound] (H-LTVSPWYGCGKLAKLAKKLAKLAK-OH) |  |  |  |  |  |  |  |  |  |  |  |  | stronger inhibition | non-specific cell killing | non-specific cell killing | non-specific killing | 
